These results are taken from US7560559B2, “Polymorphic form of montelukast sodium” (Merck & Co., Inc., priority 2003, dated 2009).

For series [1] the following is noted: for relative CH3CN pressure of discrete loss (reverse jump) during desorption: decreasing CH3CN vapor pressure in nitrogen; for relative CH3CN pressure of discrete loss (reverse jump) during desorption / relative CH3CN pressure of discrete sorption jump indicating solvate formation: 20 and 40° C.; for relative CH3CN pressure of discrete sorption jump indicating solvate formation: increasing CH3CN vapor pressure in nitrogen; for ratio CH3CN/montelukast sodium by extrapolation of the solvate sorption data segments to 0%: molar ratio, extrapolated to 0% relative pressure.

With `CC(C)(O)c1ccccc1CC[C@@H](SCC1(CC(=O)[O-])CC1)c1cccc(/C=C/c2ccc3ccc(Cl)cc3n2)c1.[Na+]` [Form A, montelukast sodium], the “relative thermodynamic stability of the polymorphs from melting traces” value (dry samples, DSC 5° C./min, melting enthalpy and onset compared) is “more thermodynamically stable than Form B”. Also, in series [1], the “relative CH3CN pressure of discrete loss (reverse jump) during desorption” value is recorded as “approximately 20%” and the “relative CH3CN pressure of discrete sorption jump indicating solvate formation” value was 50-60%.
Turning to `CC(C)(O)c1ccccc1CC[C@@H](SCC1(CC(=O)[O-])CC1)c1cccc(/C=C/c2ccc3ccc(Cl)cc3n2)c1.[Na+]` [Form B, montelukast sodium], in series [1], the “relative CH3CN pressure of discrete loss (reverse jump) during desorption” value is recorded as “below 5%” and the “relative CH3CN pressure of discrete sorption jump indicating solvate formation” value is reported as “no discrete jump during sorption”.
Consider `CC(C)(O)c1ccccc1CC[C@@H](SCC1(CC(=O)[O-])CC1)c1cccc(/C=C/c2ccc3ccc(Cl)cc3n2)c1.[Na+]` [hemisolvate, montelukast sodium:acetonitrile hemisolvate], for which the “relative stability of the solvate forms from melting traces” value (solvates formed in situ with excess acetonitrile in sealed pan, DSC) was “more stable than the monosolvate at all meaningful temperatures”. The “ratio CH3CN/montelukast sodium by extrapolation of the solvate sorption data segments to 0%” value in series [1] was 0.45 CH3CN/montelukast sodium.
Turning to `CC(C)(O)c1ccccc1CC[C@@H](SCC1(CC(=O)[O-])CC1)c1cccc(/C=C/c2ccc3ccc(Cl)cc3n2)c1.[Na+]` [monosolvate, montelukast sodium:acetonitrile monosolvate], in series [1], the “ratio CH3CN/montelukast sodium by extrapolation of the solvate sorption data segments to 0%” value is recorded as 1.1 CH3CN/montelukast sodium.
